According to patent publication US20200115460A1:

Legend:
Experiment in all cases: Cell ELISA, 10 nM antibody
[1] = target: hIGFIR[L1-L2]/hINSR (human)
[2] = target: hINSR[L1-L2]/hIGFIR (human)
hINSR[L2]/hIGFIR (human) = target: hINSR[L2]/hIGFIR (human)
hINSR[L1]/hIGFIR (human) = target: hINSR[L1]/hIGFIR (human)

binding [1]: binds | binding [2]: binds | binding (hINSR[L2]/hIGFIR (human)): binds | binding (hINSR[L1]/hIGFIR (human)): binds
B1: IGF11-16 (antibody, mouse IgG1, kappa, V domains shown)
VH: QIQLQQPGAELVKPGASVKLSCKAPGYTFTSYWMHWVKQRPGQGLEWIGETNPSNSVTNYNEKFKSKATLTVDKSSSTAYMQLSSLTSEDSAVYYCTIGRGRGFAYWGQGTLVTVSA
VL: DIQMNQSPSSLSASLGDTITITCRASQNINFWLSWCQQKPGNIPKLLIYKASNLHTGVPSRFSGSGSGTDFTLTISSLQPEDIATYYCLQGQSYPYTFGGGTKLEIKR

These are yes or no findings as the source states them, for the method shown. A result given as binding can be weak or reduced; the word gives no strength.
